# Measurements from publication PMC3317945.
# Protein sequences, listed by entry. Tags and fused reporters are not part of them. Residues count along the entry.
# UniProt P37231, residues 201-503: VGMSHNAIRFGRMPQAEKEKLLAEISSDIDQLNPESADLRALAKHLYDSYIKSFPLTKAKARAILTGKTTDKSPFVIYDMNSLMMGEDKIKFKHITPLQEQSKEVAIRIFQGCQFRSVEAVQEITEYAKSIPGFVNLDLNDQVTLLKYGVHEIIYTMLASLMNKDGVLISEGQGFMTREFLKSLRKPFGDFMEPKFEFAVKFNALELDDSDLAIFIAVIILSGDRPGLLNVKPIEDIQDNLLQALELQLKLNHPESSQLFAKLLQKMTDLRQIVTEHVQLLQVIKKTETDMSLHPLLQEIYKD
# These are yes or no findings as the source states them, for the method shown. Some binding calls cover weakened binding; strength is not graded here.
# B1: DRIP2 (…) labeled with Texas-Red maleimide (peptide)
# peptide: CNTKNHPMLMNLLKDNPAQD
# modifications: labeled with Texas-Red maleimide
# Columns and labels:
# [1] = target: PPARγ-LBD (amino acids 173–475) (UniProt P37231); assay: fluorescence polarisation; with agonist (rosiglitazone 5 µM in the methods; GW929 in the legend, GW949 in the results); 10 nM Texas-Red DRIP2, 1 µM PPARγ-LBD; 20 mM TRIS pH 7.5, 100 mM NaCl, 0.01% NP-40, 2% DMSO; MT19c dilution series; equilibrated two hours; 384 well plate; both purified
# [2] = target: PPARγ-LBD (amino acids 173–475) (UniProt P37231); assay: condition: only without the agonist (GW949); 1 µM PPARγ-LBD, 10 nM DRIP2; fluorescence polarisation; without agonist; 10 nM Texas-Red DRIP2, 1 µM PPARγ-LBD; 20 mM TRIS pH 7.5, 100 mM NaCl, 0.01% NP-40, 2% DMSO; MT19c dilution series; equilibrated two hours; 384 well plate; both purified
binder,measurement,setting,value
B1,binding,[1],binds
same,binding,[2],no binding
